Measurements published in patent US11980681B2, “Material for demineralizing dentin collagen fibril, preparation method and application thereof” (THE FOURTH MILITARY MEDICAL UNIVERSITY OF CHINESE PEOPLE'S …, priority 2019, dated 2024).

Assay: Microtensile bond strength of dentin bonded after demineralizing agent treatment
Conditions: versus phosphoric acid-wet bonding control, 32% PA 15 s, 0.1M EDTA 60 s, 25 mg/ml GCE 30 s, n=10 teeth

SMILES | bonding strength (microtensile), dry bonding mode
O=P(O)(O)O [phosphoric acid] | significant decrease in bonding strength
O=C(O)CN(CCN(CC(=O)O)CC(=O)O)CC(=O)O [EDTA, ethylenediaminetetraacetic acid] | significant decrease in bonding strength
